# Results deposited as PubChem BioAssay AID493246 (Drosophila RNAi Screening Center, 2011)
# Test: 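Identify essential fly genes by loss of cell viability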 (primary screen)
# Cells: Drosophila Kc and S2R+ cells
# Knock-down reagent: long dsRNA against Drosophila genes
# Detection: 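Cell number per well after knock-down, printed as raw plate values; calls were based on per-plate z-scores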
# Reading the numbers: Kc cell number and S2R+ cell number: higher = more cells remaining
# Hit rule: 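Active when the per-plate z-score of cell number is 3 or more in the direction of fewer cells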
# The screen tested about 21,000 reagents; this is an unselected part of those with a known target gene and a result. In the full data, 429 (2%) were called active. 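Values are raw and not normalised between plates; calls rest on per-plate z-scores that were not deposited.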 Unmarked entries are inactive. The numbers tell different reagents against one gene apart. Not stated in the record: the amount of reagent, the time to read-out.
Gene,reagent no.,"Kc cell number, rep 1","Kc cell number, rep 2","S2R+ cell number, rep 1","S2R+ cell number, rep 2"
Nepl5,1,1.25e6,1.36e6,6.50e5,7.22e5
CG12493,1,1.50e6,1.37e6,1.18e6,1.20e6
Erasp,1,1.53e6,1.58e6,1.02e6,9.66e5
CG30156,1,1.42e6,1.53e6,9.80e5,1.11e6
CG2841,1,1.44e6,1.43e6,1.07e6,1.22e6
CG2841,2,1.49e6,1.45e6,1.04e6,1.10e6
obst-H,1,1.68e6,1.59e6,1.25e6,1.35e6
obst-H,2,1.70e6,1.57e6,1.20e6,1.42e6
a10,1,1.41e6,1.70e6,1.43e6,1.52e6
CG13226,1,1.51e6,1.44e6,1.15e6,1.30e6
CG13724,1,1.76e6,1.86e6,1.35e6,1.42e6
spin,1,1.46e6,1.47e6,1.04e6,1.12e6
mIF2,1,1.66e6,1.70e6,1.09e6,1.23e6
Col4a1,1,1.30e6,1.32e6,5.75e5,7.69e5
tei,1,1.86e6,1.74e6,1.23e6,1.43e6
ND-49,1,1.31e6,1.35e6,7.91e5,9.18e5
spaw,1,1.41e6,1.56e6,1.19e6,1.32e6
caps,1,1.22e6,1.34e6,1.25e6,1.31e6
Gdh,1,1.44e6,1.47e6,8.51e5,9.38e5
CG12177,1,1.55e6,1.51e6,1.04e6,1.17e6
Ets97D,1,1.40e6,1.48e6,9.62e5,1.09e6
Nhe2,1,1.52e6,1.60e6,1.23e6,3.48e5
Nhe2,2,1.67e6,1.78e6,1.37e6,4.77e5
kappaTry,1,1.51e6,1.50e6,1.18e6,1.32e6
CG8888,1,1.54e6,1.59e6,1.12e6,1.11e6
CG8888,2,1.65e6,1.71e6,1.25e6,1.36e6
ND6 (retired record),1,1.48e6,1.54e6,1.07e6,1.19e6
Ire1,1,1.30e6,1.32e6,1.17e6,1.17e6
CG17991,1,1.57e6,1.59e6,1.11e6,1.26e6
flz,1,1.63e6,1.64e6,1.39e6,1.43e6
CaMKI,1,5.52e5,,8.49e5,
Klp31E,1,1.38e6,1.42e6,1.14e6,1.18e6
Syn1,1,1.30e6,1.32e6,1.32e6,1.40e6
Syn1,2,1.28e6,1.26e6,1.28e6,1.35e6
CG32246,1,1.64e6,1.67e6,1.08e6,1.29e6
Dhpr,1,1.59e6,1.57e6,1.14e6,1.15e6
Egfrap,1,1.67e6,1.52e6,1.14e6,1.20e6
Egfrap,2,1.71e6,1.63e6,1.13e6,1.25e6
rtp,1,1.66e6,1.63e6,1.32e6,1.35e6
CG5327,1,1.54e6,1.53e6,1.22e6,1.24e6
CG17085 (retired record),1,1.75e6,1.78e6,1.14e6,1.31e6
CG17085 (retired record),2,1.60e6,1.68e6,1.14e6,1.25e6
rin,1,1.70e6,1.76e6,8.26e5,9.16e5
cher,1,1.47e6,1.57e6,1.16e6,1.26e6
CG8958,1,1.48e6,1.50e6,1.08e6,1.24e6
eIF3g1,1,4.32e5,,5.87e5,
CG14756,1,1.48e6,1.50e6,1.20e6,1.28e6
CG17930,1,1.49e6,1.62e6,1.13e6,1.21e6
pch2,1,1.39e6,1.49e6,1.05e6,1.19e6
CG12541,1,1.35e6,1.51e6,1.13e6,1.22e6
CG12541,2,1.69e6,1.58e6,1.07e6,1.22e6
Bicra,1,1.37e6,1.43e6,1.04e6,1.08e6
CG12147,1,1.70e6,1.89e6,1.14e6,1.22e6
LSm1,1,1.57e6,1.60e6,1.21e6,2.80e5
CG8673,1,1.51e6,1.58e6,1.19e6,1.30e6
Or30a,1,1.51e6,1.65e6,1.27e6,1.42e6
CG17764,1,1.50e6,1.62e6,1.04e6,1.15e6
CG13978,1,1.54e6,1.55e6,1.10e6,1.18e6
gdrd,1,1.40e6,1.60e6,1.28e6,1.42e6

9 entries from above, set out differently:
Gene | reagent no. | Kc cell number, rep 1 | Kc cell number, rep 2 | S2R+ cell number, rep 1 | S2R+ cell number, rep 2
rin | 1 | 1.70e6 | 1.76e6 | 8.26e5 | 9.16e5
cher | 1 | 1.47e6 | 1.57e6 | 1.16e6 | 1.26e6
CG8958 | 1 | 1.48e6 | 1.50e6 | 1.08e6 | 1.24e6
eIF3g1 | 1 | 4.32e5 | – | 5.87e5 | –
CG14756 | 1 | 1.48e6 | 1.50e6 | 1.20e6 | 1.28e6
CG17930 | 1 | 1.49e6 | 1.62e6 | 1.13e6 | 1.21e6
pch2 | 1 | 1.39e6 | 1.49e6 | 1.05e6 | 1.19e6
CG12541 | 1 | 1.35e6 | 1.51e6 | 1.13e6 | 1.22e6
CG12541 | 2 | 1.69e6 | 1.58e6 | 1.07e6 | 1.22e6
